Laboratory results reported in publication doi:10.1101/2023.08.03.551875.
Results are given in words; binding and its absence hold for the method and conditions named. Binding seen in cells or lysates may run through a third protein. Some entries that bind do so weakly or less than the wild type. For part of these data: Where a sequence is shown, tags or fusion partners need not be part of it.

Protein sequences, listed by entry. Tags and fused reporters are not part of them.
UniProt P04050, whole entry: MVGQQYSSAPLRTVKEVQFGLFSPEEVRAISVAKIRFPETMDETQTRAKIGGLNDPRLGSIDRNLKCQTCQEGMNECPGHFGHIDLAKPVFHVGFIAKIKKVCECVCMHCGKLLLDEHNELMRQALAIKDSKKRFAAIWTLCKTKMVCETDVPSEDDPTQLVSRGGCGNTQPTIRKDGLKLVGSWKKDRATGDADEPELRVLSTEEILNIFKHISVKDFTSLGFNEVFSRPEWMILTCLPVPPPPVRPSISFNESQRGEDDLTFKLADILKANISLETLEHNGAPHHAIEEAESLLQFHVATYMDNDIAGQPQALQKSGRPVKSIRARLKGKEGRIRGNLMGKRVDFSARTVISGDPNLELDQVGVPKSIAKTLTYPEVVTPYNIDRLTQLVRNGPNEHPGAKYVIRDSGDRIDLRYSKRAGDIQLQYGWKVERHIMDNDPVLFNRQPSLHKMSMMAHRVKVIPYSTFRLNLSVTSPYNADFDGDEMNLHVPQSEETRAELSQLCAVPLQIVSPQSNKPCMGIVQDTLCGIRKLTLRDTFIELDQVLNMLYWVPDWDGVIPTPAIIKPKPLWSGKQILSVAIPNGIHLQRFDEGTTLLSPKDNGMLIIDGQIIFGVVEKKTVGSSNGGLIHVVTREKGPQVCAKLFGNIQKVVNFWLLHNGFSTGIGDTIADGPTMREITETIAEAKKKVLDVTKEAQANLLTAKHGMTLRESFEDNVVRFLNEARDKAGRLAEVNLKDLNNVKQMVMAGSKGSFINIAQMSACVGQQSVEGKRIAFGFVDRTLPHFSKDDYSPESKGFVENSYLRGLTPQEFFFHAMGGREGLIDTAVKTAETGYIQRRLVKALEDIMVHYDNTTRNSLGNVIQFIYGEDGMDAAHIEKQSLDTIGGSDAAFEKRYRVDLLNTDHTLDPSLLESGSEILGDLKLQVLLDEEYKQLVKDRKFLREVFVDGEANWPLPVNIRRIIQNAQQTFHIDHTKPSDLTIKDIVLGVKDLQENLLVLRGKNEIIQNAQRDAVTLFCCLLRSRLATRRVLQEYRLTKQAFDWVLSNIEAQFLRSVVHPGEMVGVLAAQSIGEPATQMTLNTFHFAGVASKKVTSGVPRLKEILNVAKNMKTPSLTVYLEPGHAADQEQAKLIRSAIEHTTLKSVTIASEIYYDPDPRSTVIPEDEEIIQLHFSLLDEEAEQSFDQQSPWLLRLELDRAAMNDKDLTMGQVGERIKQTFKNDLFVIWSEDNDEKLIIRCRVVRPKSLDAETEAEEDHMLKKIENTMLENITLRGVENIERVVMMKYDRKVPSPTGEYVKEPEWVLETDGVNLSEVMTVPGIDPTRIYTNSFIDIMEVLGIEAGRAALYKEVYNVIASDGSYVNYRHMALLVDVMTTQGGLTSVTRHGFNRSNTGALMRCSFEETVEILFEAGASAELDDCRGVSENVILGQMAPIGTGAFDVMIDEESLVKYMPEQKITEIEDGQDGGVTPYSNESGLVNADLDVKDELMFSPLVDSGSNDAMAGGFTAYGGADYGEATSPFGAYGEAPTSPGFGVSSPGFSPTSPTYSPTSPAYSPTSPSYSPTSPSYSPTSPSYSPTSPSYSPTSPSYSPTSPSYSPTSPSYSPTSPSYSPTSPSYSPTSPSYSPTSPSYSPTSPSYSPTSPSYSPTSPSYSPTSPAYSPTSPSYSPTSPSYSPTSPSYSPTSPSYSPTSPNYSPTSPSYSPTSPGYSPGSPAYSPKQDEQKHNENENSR

T1: Syf1-TAP (S. cerevisiae) (UniProt Q04048)
T1 sequence: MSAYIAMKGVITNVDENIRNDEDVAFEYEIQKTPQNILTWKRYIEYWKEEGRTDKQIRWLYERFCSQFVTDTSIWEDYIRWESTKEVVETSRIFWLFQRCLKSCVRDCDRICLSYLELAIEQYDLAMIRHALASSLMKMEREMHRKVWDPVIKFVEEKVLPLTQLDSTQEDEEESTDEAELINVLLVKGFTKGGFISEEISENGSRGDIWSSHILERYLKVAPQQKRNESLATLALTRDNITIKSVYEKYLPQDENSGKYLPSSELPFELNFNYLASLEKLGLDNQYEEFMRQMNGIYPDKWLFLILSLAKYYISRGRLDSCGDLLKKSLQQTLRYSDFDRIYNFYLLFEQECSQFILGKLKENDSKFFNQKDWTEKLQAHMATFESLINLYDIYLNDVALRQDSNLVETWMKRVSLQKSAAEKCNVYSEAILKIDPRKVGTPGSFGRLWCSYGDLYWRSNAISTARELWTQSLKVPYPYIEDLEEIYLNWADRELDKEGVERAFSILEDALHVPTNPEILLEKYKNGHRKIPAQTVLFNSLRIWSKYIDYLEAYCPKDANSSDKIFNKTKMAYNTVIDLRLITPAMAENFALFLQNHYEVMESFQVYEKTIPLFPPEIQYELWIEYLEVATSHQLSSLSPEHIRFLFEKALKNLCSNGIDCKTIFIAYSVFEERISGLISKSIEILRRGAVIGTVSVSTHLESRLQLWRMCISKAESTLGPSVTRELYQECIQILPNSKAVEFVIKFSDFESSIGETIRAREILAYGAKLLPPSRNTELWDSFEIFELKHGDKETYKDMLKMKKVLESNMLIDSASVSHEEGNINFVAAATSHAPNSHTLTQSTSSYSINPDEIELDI

T2: N-terminally TAP-tagged Hpr1 (S. cerevisiae) (UniProt P17629)
T2 sequence: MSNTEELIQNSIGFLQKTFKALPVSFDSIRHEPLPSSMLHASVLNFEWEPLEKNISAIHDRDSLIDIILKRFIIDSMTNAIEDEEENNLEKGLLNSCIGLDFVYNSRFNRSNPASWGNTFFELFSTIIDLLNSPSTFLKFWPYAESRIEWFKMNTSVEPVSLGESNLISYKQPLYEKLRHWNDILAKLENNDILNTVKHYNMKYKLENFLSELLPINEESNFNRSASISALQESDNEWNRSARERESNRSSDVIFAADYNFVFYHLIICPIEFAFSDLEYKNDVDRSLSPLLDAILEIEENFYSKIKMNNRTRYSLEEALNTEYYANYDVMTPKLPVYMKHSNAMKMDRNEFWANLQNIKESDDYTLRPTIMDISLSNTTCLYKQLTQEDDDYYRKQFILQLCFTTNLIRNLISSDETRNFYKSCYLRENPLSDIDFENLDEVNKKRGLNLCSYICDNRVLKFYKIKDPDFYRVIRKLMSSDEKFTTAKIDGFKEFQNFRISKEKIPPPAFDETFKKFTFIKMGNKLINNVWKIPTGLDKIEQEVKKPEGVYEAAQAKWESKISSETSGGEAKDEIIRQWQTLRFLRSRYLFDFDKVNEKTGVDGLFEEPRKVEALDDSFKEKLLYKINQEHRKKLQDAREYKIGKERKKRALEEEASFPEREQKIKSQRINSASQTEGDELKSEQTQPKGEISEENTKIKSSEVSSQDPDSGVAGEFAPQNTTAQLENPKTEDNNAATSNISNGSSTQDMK

T3: Hpr1-TAP (C-terminal TAP tag) (S. cerevisiae) (UniProt P17629)
T3 sequence: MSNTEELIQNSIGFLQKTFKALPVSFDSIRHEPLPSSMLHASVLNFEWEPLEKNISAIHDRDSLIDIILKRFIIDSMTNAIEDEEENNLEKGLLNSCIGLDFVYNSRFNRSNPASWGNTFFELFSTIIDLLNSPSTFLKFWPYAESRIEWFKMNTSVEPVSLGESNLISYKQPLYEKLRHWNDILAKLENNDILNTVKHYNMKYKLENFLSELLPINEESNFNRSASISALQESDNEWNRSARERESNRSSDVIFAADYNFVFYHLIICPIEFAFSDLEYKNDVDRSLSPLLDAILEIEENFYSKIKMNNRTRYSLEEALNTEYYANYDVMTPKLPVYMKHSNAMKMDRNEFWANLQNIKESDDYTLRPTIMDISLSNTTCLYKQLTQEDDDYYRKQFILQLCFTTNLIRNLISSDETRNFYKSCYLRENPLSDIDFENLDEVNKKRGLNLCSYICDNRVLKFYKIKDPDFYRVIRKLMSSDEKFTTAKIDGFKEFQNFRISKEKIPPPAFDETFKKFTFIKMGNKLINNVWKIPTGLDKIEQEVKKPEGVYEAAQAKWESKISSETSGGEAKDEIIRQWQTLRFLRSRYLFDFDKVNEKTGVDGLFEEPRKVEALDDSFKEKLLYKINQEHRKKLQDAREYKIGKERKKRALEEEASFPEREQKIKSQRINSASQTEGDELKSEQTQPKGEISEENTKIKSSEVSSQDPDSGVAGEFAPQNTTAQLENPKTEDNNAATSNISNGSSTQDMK


Legend:
Assay in all cases: co-IP
Syf1-TAP (S. cerevisiae) = biological target: T1, Syf1-TAP (S. cerevisiae)
[1] = biological target: T2, N-terminally TAP-tagged Hpr1 (S. cerevisiae)
[2] = biological target: T3, Hpr1-TAP (C-terminal TAP tag) (S. cerevisiae)

binding (Syf1-TAP (S. cerevisiae)) | binding [1] | binding [2] | Molecule
binds | – | – | Rpb1, the largest subunit of RNA polymerase II (from UniProt P04050 1-1733)
– | binds | binds | HA-tagged Syf1 (protein, UniProt Q04048 1-859) MSAYIAMKGVITNVDENIRNDEDVAFEYEIQKTPQNILTWKRYIEYWKEEGRTDKQIRWLYERFCSQFVTDTSIWEDYIRWESTKEVVETSRIFWLFQRCLKSCVRDCDRICLSYLELAIEQYDLAMIRHALASSLMKMEREMHRKVWDPVIKFVEEKVLPLTQLDSTQEDEEESTDEAELINVLLVKGFTKGGFISEEISENGSRGDIWSSHILERYLKVAPQQKRNESLATLALTRDNITIKSVYEKYLPQDENSGKYLPSSELPFELNFNYLASLEKLGLDNQYEEFMRQMNGIYPDKWLFLILSLAKYYISRGRLDSCGDLLKKSLQQTLRYSDFDRIYNFYLLFEQECSQFILGKLKENDSKFFNQKDWTEKLQAHMATFESLINLYDIYLNDVALRQDSNLVETWMKRVSLQKSAAEKCNVYSEAILKIDPRKVGTPGSFGRLWCSYGDLYWRSNAISTARELWTQSLKVPYPYIEDLEEIYLNWADRELDKEGVERAFSILEDALHVPTNPEILLEKYKNGHRKIPAQTVLFNSLRIWSKYIDYLEAYCPKDANSSDKIFNKTKMAYNTVIDLRLITPAMAENFALFLQNHYEVMESFQVYEKTIPLFPPEIQYELWIEYLEVATSHQLSSLSPEHIRFLFEKALKNLCSNGIDCKTIFIAYSVFEERISGLISKSIEILRRGAVIGTVSVSTHLESRLQLWRMCISKAESTLGPSVTRELYQECIQILPNSKAVEFVIKFSDFESSIGETIRAREILAYGAKLLPPSRNTELWDSFEIFELKHGDKETYKDMLKMKKVLESNMLIDSASVSHEEGNINFVAAATSHAPNSHTLTQSTSSYSINPDEIELDI
